Experimental data: patent US5962533A, “Hydroxy polyamines” (priority 1996, dated 1999)

Test system: L1210 cells
Experiment: Polyamine pool analysis in analogue-treated L1210 cells (HPLC)
Assay type: cell-based, Murine
Procedure: Polyamine Pool Analysis. While in logarithmic growth, cells were treated with the polyamine derivatives. […] Each supernatant was frozen at -20° C. until analysis by HPLC.

SMILES | intracellular concentration of analogue (L1210 cells, 0.7 μm (0.4*Ki) for 4 hours) [mm] | Analogue amount in cells (L1210 cells, 0.7 μm analogue) [nmol/10^6 cells] | intracellular concentration of analogue (L1210 cells, 3.5 μm (2*Ki)) [mm] | Analogue amount in cells (L1210 cells, 3.5 μm analogue) [nmol/10^6 cells] | intracellular concentration of analogue (L1210 cells grown in 10 μm for 48 hours) [mm] | Analogue amount in cells (L1210 cells, 10 μm analogue) [nmol/10^6 cells]
CCNCC[C@@H](O)CNCCCCNC[C@H](O)CCNCC [(HO)2 DEHSPM, N^1,N^14 -Diethyl-3(R),12(R)-dihydroxyhomospermine tetrahydrochloride] | 1.3 | 1.32 | 2.7 | 2.73 | – | –
CCNCCCCNCCCCNCCCCNCC [DEHSPM, Diethylhomospermine] | – | – | – | – | 2.94 | 2.94

Where a name gives a salt, the structure may show the parent alone.
